Structures can show the parent of a compound that is named as a salt. The list shows a part of the results. Repeats are few or missing, and single values can be far off.
What was measured:
Experiment in all cases: reduction in cell viability relative to untreated/vehicle; higher = more growth inhibition
Details in all cases: 200 nM; 72 h
M229P = tested on: M229P (parental melanoma line)
M229R = tested on: M229R (matched melanoma line resistant to BRAF inhibitors)
M238P = tested on: M238P (parental melanoma line)
M238R = tested on: M238R (matched melanoma line resistant to BRAF inhibitors)
M249P = tested on: M249P (parental melanoma line)
M249R = tested on: M249R (matched melanoma line resistant to BRAF inhibitors)
UACC62P = tested on: UACC62P (parental melanoma line)
UACC62R = tested on: UACC62R (matched melanoma line resistant to BRAF inhibitors)

| SMILES | reduction in cell viability (M229P) | reduction in cell viability (M229R) | reduction in cell viability (M238P) | reduction in cell viability (M238R) | reduction in cell viability (M249P) | reduction in cell viability (M249R) | reduction in cell viability (UACC62P) | reduction in cell viability (UACC62R) |
| --- | --- | --- | --- | --- | --- | --- | --- | --- |
| Cc1ccc(C(=O)N(CCCN)[C@@H](c2oc3cc(Cl)ccc3c(=O)c2Cc2ccccc2)C(C)C)cc1 | 24.8% | 33.8% | 77.6% | 69.3% | 39.1% | 39.1% | 50% | 75.4% |
| NCCCC(N)(C(=O)O)C(F)F (configuration not stated) [Eflornithine Hydrochloride] | < 0% | < 0% | < 0% | < 0% | < 0% | < 0% | < 0% | < 0% |
| COc1ccc(Nc2nccc(NCCO)n2)cc1 [Cardiogenol] | < 0% | < 0% | < 0% | < 0% | < 0% | < 0% | < 0% | < 0% |
| CCOC(=O)[C@@H](N)CCC(=O)N[C@@H](CSCc1ccccc1)C(=O)N[C@@H](C(=O)OCC)c1ccccc1 [Ezatiostat] | < 0% | < 0% | 5.65% | 61.7% | 10.9% | 20.5% | < 0% | < 0% |
| Cc1ccc2c(c1)C(=O)C1(O)CCN(c3ccccc3)C1=N2 (single isomer, unassigned; (-)) [(-)-Blebbistatin] | < 0% | < 0% | < 0% | < 0% | < 0% | < 0% | < 0% | < 0% |
| C[C@]12CCC(=O)C=C1CC[C@@H]1[C@@H]2[C@@H](O)C[C@@]2(C)[C@H]1CC[C@]2(O)C(=O)CO [Hydrocortisone] | < 0% | < 0% | < 0% | < 0% | < 0% | < 0% | < 0% | < 0% |
| CC(C)c1nn(-c2c(Cl)cccc2Cl)c2nc(Cc3ccc(OCCO)cc3)[nH]c(=O)c12 | 48.9% | 56.6% | 82% | 55.7% | 89.3% | 89.5% | 82.5% | 78.1% |
| CC1(C)CNc2cc(NC(=O)c3cccnc3NCc3ccncc3)ccc21 [Motesanib] | < 0% | < 0% | < 0% | < 0% | < 0% | < 0% | 0.15% | < 0% |
| CCOC(=O)C(C)(C)Oc1ccc(Cl)cc1 [Clofibrate] | < 0% | < 0% | < 0% | < 0% | < 0% | < 0% | < 0% | < 0% |

Source: the supplement of paper PMC9015667
